Measured values as given in the supplement of paper PMC12889115.
This is one part of the list. Values are raw readings; no control value is given beside them.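 First-pass screen: polymyxin B was added at a level that permeabilizes the Salmonella outer membrane while sparing the inner membrane. DMSO wells, with and without polymyxin B, defined maximum growth. Because plates differed from one another, each plate's data were ranked separately and the compounds with the lowest OD600 were carried forward as hits.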

System: Salmonella enterica serovar Typhimurium SL1344
Assay: bacterial growth OD600 after 18 h with compound and polymyxin B; higher = more bacterial growth (less inhibition)
Conditions: 50 µM, Mueller-Hinton broth

Compound | bacterial growth OD600 (polymyxin B 1 µg/mL) | bacterial growth OD600 (polymyxin B 0.75 µg/mL)
CCN1CCN(C(=O)CCC2CCN(C(=O)CCCC(=O)OC)CC2)CC1 | 0.786 | –
COc1ccc(C(=O)N2CCCC(CCC(=O)NCc3ccccc3Cl)C2)cc1OC (stereo not given) | 0.907 | –
COCCCNc1ncnc2sc(C(=O)N3CCN(C/C=C/c4ccccc4)CC3)c(C)c12 | – | 0.823
O=C1CC(CC(=O)N2CCCCC2c2cccnc2)(c2ccccc2)C(=O)N1Cc1cccs1 (stereo not given) | – | 0.623
O=CN1CCCN(C(=O)CC2(c3ccccc3)CC(=O)N(Cc3ccc4c(c3)OCO4)C2=O)CC1 (stereo not given) | – | 0.993
CC(C)NC(=O)C1CCN(C2CCN(C(=O)c3ccc(F)c(Cl)c3)CC2)CC1 | 1 | –
COc1ccc(C(=O)NCC2Cc3cc(-c4nc(C)cnc4C)ccc3O2)c(OC)c1 (stereo not given) | – | 0.859
CC(=O)c1cc(CN2CCC(C(=O)Nc3cccc(-c4cscn4)c3)CC2)cs1 | 0.709 | –
COCCC(=O)NCc1ccc2[nH]c(C)c(C)c2c1 | – | 0.861
Cc1nc(C)c(C(=O)N2CCC3(CC2)CC3C(=O)NCCC(c2ccccc2)c2ccccc2)s1 (stereo not given) | – | 0.794
Cc1nc(C(=O)N2CCC(C3(c4ccccn4)NC(=O)N(CCc4cccs4)C3=O)CC2)cs1 (stereo not given) | – | 0.891
Nc1cc(C(=O)N2CCC3(CCCN(Cc4ccc(F)c(F)c4)C3)C2)ccn1 (stereo not given) | – | 0.651
Cn1nccc1C(=O)N1CCCCC1C(=O)Nc1ccc(Oc2ccccc2F)cc1 (stereo not given) | 0.891 | –
CN(C(=O)c1coc(COc2ccc(F)cc2)n1)C(C1CC1)C1CC1 | 0.003 | –
Cc1cc(C(=O)N2CCCC(C(=O)Nc3ccccc3Oc3cccnc3)C2)nn1C (stereo not given) | 0.944 | –
CC(C)=CC(=O)N1CCC(n2nccc2NC(=O)c2ccccc2C)CC1 | 0.876 | –
Cc1ccc(CNCc2c(C(=O)N(C)CCc3ccccc3)nc3sccn23)o1 | 1.04 | –
O=C(CCC1CCN(C(=O)c2cccc(N3CCCC3=O)c2)CC1)NC1CC1 | 0.915 | –
C/C=C(\C)CN1CCC(CCC(=O)Nc2ccc3c(c2)OCCO3)CC1 | 0.856 | –
C=CCC1(CC=C)CCCN1C(=O)CC1C(=O)NCCN1Cc1cccnc1 (stereo not given) | 0.862 | –

3 entries out of the list, arranged by formula weight, smallest number first:
Compound | bacterial growth OD600 (polymyxin B 1 µg/mL) | bacterial growth OD600 (polymyxin B 0.75 µg/mL)
Nc1cc(C(=O)N2CCC3(CCCN(Cc4ccc(F)c(F)c4)C3)C2)ccn1 (stereo not given) | – | 0.651
CC(C)NC(=O)C1CCN(C2CCN(C(=O)c3ccc(F)c(Cl)c3)CC2)CC1 | 1 | –
COc1ccc(C(=O)N2CCCC(CCC(=O)NCc3ccccc3Cl)C2)cc1OC (stereo not given) | 0.907 | –
